In patent publication US8476434B2, “Protein kinase modulators and method of use” (Amgen Inc., priority 2004, dated 2013):
Some of these results come from one statement about several compounds together.

Protein sequences, listed by entry. Tags and fused reporters are not part of them. Residues count along the entry.
UniProt Q02763, 23-1124: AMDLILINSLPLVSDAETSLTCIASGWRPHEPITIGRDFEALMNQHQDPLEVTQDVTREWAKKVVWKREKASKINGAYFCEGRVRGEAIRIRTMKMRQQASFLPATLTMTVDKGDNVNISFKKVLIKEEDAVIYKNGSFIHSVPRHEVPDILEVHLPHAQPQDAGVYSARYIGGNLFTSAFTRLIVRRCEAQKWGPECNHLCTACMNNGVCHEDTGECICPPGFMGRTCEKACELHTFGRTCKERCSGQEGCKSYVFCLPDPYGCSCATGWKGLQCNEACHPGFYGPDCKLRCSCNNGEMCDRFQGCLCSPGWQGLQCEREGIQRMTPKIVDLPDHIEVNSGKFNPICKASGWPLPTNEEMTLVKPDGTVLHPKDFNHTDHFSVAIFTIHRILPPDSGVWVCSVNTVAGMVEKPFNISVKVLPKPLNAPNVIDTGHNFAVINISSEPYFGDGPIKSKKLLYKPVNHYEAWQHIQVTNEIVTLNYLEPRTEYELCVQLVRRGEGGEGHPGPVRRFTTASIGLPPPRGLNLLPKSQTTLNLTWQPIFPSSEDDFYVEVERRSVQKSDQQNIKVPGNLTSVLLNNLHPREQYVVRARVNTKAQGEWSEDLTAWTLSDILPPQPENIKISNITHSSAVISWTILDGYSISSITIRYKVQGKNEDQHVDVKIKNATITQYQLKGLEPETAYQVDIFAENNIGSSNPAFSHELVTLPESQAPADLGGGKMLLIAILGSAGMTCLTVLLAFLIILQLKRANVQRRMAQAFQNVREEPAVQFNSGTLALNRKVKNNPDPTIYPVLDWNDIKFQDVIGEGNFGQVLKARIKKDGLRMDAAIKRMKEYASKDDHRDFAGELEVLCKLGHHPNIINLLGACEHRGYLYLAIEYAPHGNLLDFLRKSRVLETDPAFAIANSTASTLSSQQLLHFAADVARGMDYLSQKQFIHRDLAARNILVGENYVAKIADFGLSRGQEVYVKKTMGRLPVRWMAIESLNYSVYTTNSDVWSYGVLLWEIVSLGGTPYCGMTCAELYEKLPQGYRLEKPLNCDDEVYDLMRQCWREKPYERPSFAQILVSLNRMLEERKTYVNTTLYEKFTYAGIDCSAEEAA

Each compound was assayed against Tie-2 kinase enzyme (Homo sapiens, UniProt Q02763) (assay: Tie-2 Homogenous Time Resolved Fluorescent (HTRF) kinase assay). Conditions: read-out: IC50's for the inhibition of Tie-2 as measured by the HTRF assay.
Format: biochemical

Structure (SMILES) | IC50 [µM]
CNc1nccc(-c2cccnc2Oc2cc(F)cc(C(=O)Nc3cc(C(F)(F)F)ccc3N(C)[C@H]3CCN(C)C3)c2)n1 (racemic) [Example 500, 3-fluoro-5-((3-(2-(methylamino)-4-pyrimidinyl)-2-pyridinyl)oxy)-N-(2-(methyl(1-methyl-3-pyrrolidinyl)amino)-5-(trifluoromethyl)phenyl) benzamide] | < 5
CNc1cc(-c2cccnc2Oc2ccc(F)c(C(=O)Nc3cc(C(F)(F)F)ccc3N(C)[C@@H]3CCN(C)C3)c2)ccn1 (racemic) [Example 512, 2-fluoro-5-((2′-(methylamino)-3,4′-bipyridin-2-yl)oxy)-N-(2-(methyl(1-methyl-3-pyrrolidinyl)amino)-5-(trifluoromethyl)phenyl) benzamide] | < 5
CNc1nccc(-c2cccnc2Oc2ccc(F)c(C(=O)Nc3cc(Cl)ccc3N(C)[C@H]3CCN(C)C3)c2)n1 (racemic) [Example 533, N-(5-chloro-2-(methyl(1-methyl-3-pyrrolidinyl)amino)phenyl)-2-fluoro-5-((3-(2-(methylamino)-4-pyrimidinyl)-2-pyridinyl)oxy)benzamide] | < 5
CNc1ncnc(-c2cccnc2Oc2ccc(NC(=O)Nc3cc(C(F)(F)F)ccc3N(C)[C@@H]3CCN(C)C3)c3ccccc23)n1 (racemic) [Example 801, N-(4-((3-(4-(methylamino)-1,3,5-triazin-2-yl)-2-pyridinyl)oxy)-1-naphthalenyl)-N′-(2-(methyl(1-methyl-3-pyrrolidinyl)amino)-5-(trifluoromethyl)phenyl)urea] | < 5
CNc1nccc(-c2cccnc2Oc2ccc(NC(=O)Nc3cc(C(F)(F)F)ccc3N(C)[C@H]3CCN(C)C3)cc2C)n1 (racemic) [Example 814, N-(3-methyl-4-((3-(2-(methylamino)-4-pyrimidinyl)-2-pyridinyl)oxy)phenyl)-N′-(2-(methyl(1-methyl-3-pyrrolidinyl)amino)-5-(trifluoromethyl)phenyl)urea] | < 5
CNc1nccc(-c2cccnc2Oc2ccc(NC(=O)Nc3cc(Cl)ccc3N(C)[C@@H]3CCN(C)C3)cc2C)n1 (racemic) [Example 824, N-(5-chloro-2-(methyl(1-methyl-3-pyrrolidinyl)amino)phenyl)-N′-(3-methyl-4-((3-(2-(methylamino)-4-pyrimidinyl)-2-pyridinyl)oxy)phenyl)urea] | < 5
CNc1nccc(-c2cccnc2Oc2cc(C(=O)Nc3cc(OCC4CCCN4C)cc(C(F)(F)F)c3)ccc2C)n1 (stereo in doubt) [Example 267, 4-methyl-3-((3-(2-(methylamino)-4-pyrimidinyl)-2-pyridinyl)oxy)-N-(3-((((2R)-1-methyl-2-pyrrolidinyl)methyl)oxy)-5-(trifluoromethyl)phenyl) benzamide] | < 5
CNc1ncnc(-c2cccnc2Oc2cc(F)cc(C(=O)Nc3cc(C(F)(F)F)ccc3N(C)[C@@H]3CCN(C)C3)c2)n1 (stereo in doubt) [Example 507, 3-fluoro-5-((3-(4-(methylamino)-1,3,5-triazin-2-yl)-2-pyridinyl)oxy)-N-(2-(methyl(1-methyl-3-pyrrolidinyl)amino)-5-(trifluoromethyl)phenyl) benzamide] | < 5
Cc1ccc(C(=O)Nc2cccc(C(C)C)c2)cc1Nc1ncccc1-c1ccncn1 [Example 81a, 4-methyl-N-(3-(1-methylethyl)phenyl)-3-((3-(4-pyrimidinyl)-2-pyridinyl)amino)benzamide] | < 5
Cc1ccc(C(=O)Nc2cc(C(C)(C)C)on2)cc1Nc1ncccc1-c1ccncn1 [Example 84, N-(5-(1,1-dimethylethyl)-3-isoxazolyl)-4-methyl-3-((3-(4-pyrimidinyl)-2-pyridinyl)amino)benzamide] | < 5
Cc1ccc(C(=O)Nc2ccc(C(C)(C)C)c(CCCN3CCOCC3)c2)cc1Nc1ncccc1-c1ccncn1 [Example 87, N-(4-(1,1-dimethylethyl)-3-(3-(4-morpholinyl)propyl)phenyl)-4-methyl-3-((3-(4-pyrimidinyl)-2-pyridinyl)amino)benzamide] | < 5
CC(C)c1cccc(NC(=O)c2ccc(Cl)c(Nc3ncccc3-c3ccncn3)c2)c1 [Example 89, 4-chloro-N-(3-(1-methylethyl)phenyl)-3-((3-(4-pyrimidinyl)-2-pyridinyl)amino)benzamide] | < 5
CC(C)c1cccc(NC(=O)c2ccc(F)c(Nc3ncccc3-c3ccncn3)c2)c1 [Example 90, 4-fluoro-N-(3-(1-methylethyl)phenyl)-3-((3-(4-pyrimidinyl)-2-pyridinyl)amino)benzamide] | < 5
O=C(Nc1cccc(C(F)(F)F)c1)c1ccc(F)c(Nc2ncccc2-c2ccncn2)c1 [Example 91, 4-fluoro-3-((3-(4-pyrimidinyl)-2-pyridinyl)amino)-N-(3-(trifluoromethyl)phenyl)benzamide] | < 5
O=C(Nc1cc(O[C@@H]2CCOC2)cc(C(F)(F)F)c1)c1ccc(F)c(Nc2ncccc2-c2ccncn2)c1 [Example 92, 4-fluoro-3-((3-(4-pyrimidinyl)-2-pyridinyl)amino)-N-(3-((3R)-tetrahydro-3-furanyloxy)-5-(trifluoromethyl)phenyl)benzamide] | < 5
CC(=O)N1CC(C)(C)c2ccc(NC(=O)c3ccc(F)c(Nc4ncccc4-c4ccncn4)c3)cc21 [Example 93, N-(1-acetyl-3,3-dimethyl-2,3-dihydro-1H-indol-6-yl)-4-fluoro-3-((3-(4-pyrimidinyl)-2-pyridinyl)amino)benzamide] | < 5
Cc1ccc(C(=O)N[C@H](C)C2CCCCC2)cc1Nc1ncccc1-c1ccncn1 [Example 94, N-((1R)-1-cyclohexylethyl)-4-methyl-3-((3-(4-pyrimidinyl)-2-pyridinyl)amino)benzamide] | < 5

Structure (SMILES) | IC50 [µM]
Cc1ccc(C(=O)Nc2cc(C(C)(C)C)nn2C)cc1Nc1ncccc1-c1ccncn1 [Example 97, N-(3-(1,1-dimethylethyl)-1-methyl-1H-pyrazol-5-yl)-4-methyl-3-((3-(4-pyrimidinyl)-2-pyridinyl)amino)benzamide] | < 5
COc1ccc(C(=O)Nc2cccc(C(F)(F)F)c2)cc1Nc1ncccc1-c1ccncn1 [Example 98, 4-(methyloxy)-3-((3-(4-pyrimidinyl)-2-pyridinyl)amino)-N-(3-(trifluoromethyl)phenyl)benzamide] | < 5
Cc1ccc(C(=O)Nc2cc(N)cc(C(F)(F)F)c2)cc1Nc1ncccc1-c1ccncn1 [Example 99, N-(3-amino-5-(trifluoromethyl)phenyl)-4-methyl-3-((3-(4-pyrimidinyl)-2-pyridinyl)amino)benzamide] | < 5
Cc1ccc(C(=O)Nc2cccc(Cl)c2)cc1Nc1ncccc1-c1ccncn1 [Example 101, N-(3-chlorophenyl)-4-methyl-3-((3-(4-pyrimidinyl)-2-pyridinyl)amino)benzamide] | < 5
Cc1ccc(C(=O)n2ccc3ccc(C(F)(F)F)cc32)cc1Nc1ncccc1-c1ccncn1 [Example 103, N-(2-methyl-5-((6-(trifluoromethyl)-1H-indol-1-yl)carbonyl)phenyl)-3-(4-pyrimidinyl)-2-pyridinamine] | < 5
Cc1ccc(C(=O)Nc2ccc(N(C)C)cc2)cc1Nc1ncccc1-c1ccncn1 [Example 104, N-(4-(dimethylamino)phenyl)-4-methyl-3-((3-(4-pyrimidinyl)-2-pyridinyl)amino)benzamide] | < 5
COc1cc(NC(=O)c2ccc(C)c(Nc3ncccc3-c3ccncn3)c2)cc(C(F)(F)F)c1 [Example 105, 4-methyl-N-(3-(methyloxy)-5-(trifluoromethyl)phenyl)-3-((3-(4-pyrimidinyl)-2-pyridinyl)amino)benzamide] | < 5
Cc1ccc(C(=O)Nc2cccc(C(F)(F)F)c2F)cc1Nc1ncccc1-c1ccncn1 [Example 106, N-(2-fluoro-3-(trifluoromethyl)phenyl)-4-methyl-3-((3-(4-pyrimidinyl)-2-pyridinyl)amino)benzamide] | < 5
Cc1ccc(C(=O)NCc2cccc(C(F)(F)F)c2)cc1Nc1ncccc1-c1ccncn1 [Example 109, 4-methyl-3-((3-(4-pyrimidinyl)-2-pyridinyl)amino)-N-((3-(trifluoromethyl)phenyl)methyl)benzamide] | < 5
Cc1ccc(C(=O)Nc2cccc(N(C)C)c2)cc1Nc1ncccc1-c1ccncn1 [Example 110, N-(3-(dimethylamino)phenyl)-4-methyl-3-((3-(4-pyrimidinyl)-2-pyridinyl)amino)benzamide] | < 5
Cc1ccc(C(=O)Nc2cc(C(F)(F)F)ccc2Cl)cc1Nc1ncccc1-c1ccncn1 [Example 112, N-(2-chloro-5-(trifluoromethyl)phenyl)-4-methyl-3-((3-(4-pyrimidinyl)-2-pyridinyl)amino)benzamide] | < 5
Cc1cccc(NC(=O)c2ccc(C)c(Nc3ncccc3-c3ccncn3)c2)c1 [Example 113, 4-methyl-N-(3-methylphenyl)-3-((3-(4-pyrimidinyl)-2-pyridinyl)amino)benzamide] | < 5
Cc1ccc(C(=O)Nc2ccc3[nH]ncc3c2)cc1Nc1ncccc1-c1ccncn1 [Example 115, N-(1H-indazol-5-yl)-4-methyl-3-((3-(4-pyrimidinyl)-2-pyridinyl)amino)benzamide] | < 5
Cc1ccc(NC(=O)c2ccc(C)c(Nc3ncccc3-c3ccncn3)c2)cc1C [Example 118, N-(3,4-dimethylphenyl)-4-methyl-3-((3-(4-pyrimidinyl)-2-pyridinyl)amino)benzamide] | < 5
Cc1ccc(C(=O)Nc2cccc(OCc3ccccc3)c2)cc1Nc1ncccc1-c1ccncn1 [Example 119, 4-methyl-N-(3-((phenylmethyl)oxy)phenyl)-3-((3-(4-pyrimidinyl)-2-pyridinyl)amino)benzamide] | < 5
COc1ccc(NC(=O)c2ccc(C)c(Nc3ncccc3-c3ccncn3)c2)cc1C(F)(F)F [Example 122, 4-methyl-N-(4-(methyloxy)-3-(trifluoromethyl)phenyl)-3-((3-(4-pyrimidinyl)-2-pyridinyl)amino)benzamide] | < 5
Cc1ccc(C(=O)Nc2cc(C(F)(F)F)cc(C(F)(F)F)c2)cc1Nc1ncccc1-c1ccncn1 [Example 125, N-(3,5-bis(trifluoromethyl)phenyl)-4-methyl-3-((3-(4-pyrimidinyl)-2-pyridinyl)amino)benzamide] | < 5
